Some entries share one result that the patent states for a list of compounds.
Tested on: Brown Rust (Puccinia recondita) on wheat
Assay: Greenhouse crop test: Brown Rust on wheat in combination with commercial fungicides (Method 3)
Assay type: in vivo
Details: evaluated at fourteen days; for additional Brown Rust disease control in combination with Amistar over Amistar alone: Amistar 0.04 L/ha; for additional Brown Rust control in combination with Balaya over Balaya alone: Balaya 0.25 L/ha; for additional Brown Rust disease control in combination with Imtrex over Imtrex alone: Imtrex 0.45 L/ha
Procedure: In this method, exemplary compounds were evaluated for their ability to control Brown Rust (Puccinia recondita) on wheat, in a controlled greenhouse environment in combination with one of four fungicides, Amistar, Imtrex, Proline or Balaya. In these studies, JB Diego wheat plants were used. Seeds were sown in 9 cm diameter pots to a depth of 1 to 2 cm using Petersfield potting compost (75% medium grade peat, 12% screened sterilized loam, 3% medium grade vermiculite, 10% grit (5 mm screened, lime free), 1.5 kg PG mix per m3, lime to pH5.5-6.0 and wetting agent (Vitax Ultrawet 200 ml per m3) and germinated/grown at 23 C under a 16 h day/8 h night light regime. Plants were treated two to three weeks after sowing when they were at the BBCH 11 growth stage (first pair of true leaves (unifoliate) unfolded). Plants were inoculated with the Puccinia triticina (Brown rust on wheat plants) 24 hours after treatment. A track sprayer was used to treat the plants with the mixture of commercial fungicide and test compound using a water volume of 200 L/ha. Four replicates were used for each combination of fungicide and test compound. Each plant was evaluated at fourteen days (once the disease symptoms were fully expressed) for % control of the disease. Appropriate controls were used for all experiments, including an ‘inoculation check’ wherein plants were inoculated with their specific pathogen to assess disease levels. Also, each commercial fungicide was tested on its own as a part of each treatment, this being benchmark against which the experimental compounds were evaluated. […] That is, the present compounds, although not fungicidal by themselves, enhance the activity of fungicides, thus the enhancer compounds work synergistically in combination with fungicides to control disease.
In these studies the fungicide was applied at the following rates

| SMILES | additional Brown Rust disease control in combination with Amistar over Amistar alone | additional Brown Rust control in combination with Balaya over Balaya alone | additional Brown Rust disease control in combination with Imtrex over Imtrex alone |
| --- | --- | --- | --- |
| Cc1ccc(NC(=O)c2ccc(C(=O)Nc3ccc(C)cc3)cc2)cc1 [Compound I-1, N^1,N^4-di-p-tolylterephthalamide] | greater than 50% | greater than 20% | greater than 50% |
| O=C(Nc1ccccc1)c1ccc(C(=O)Nc2ccccc2)cc1 [Compound I-3, N^1,N^4-diphenylterephthalamide] | greater than 30% | – | greater than 30% |
| O=C(Nc1ccc2c(c1)OCO2)c1ccc(C(=O)Nc2ccc3c(c2)OCO3)cc1 [Compound I-5, N^1,N^4-bis(benzo[d][1,3]dioxol-5-yl)terephthalamide] | greater than 30% | greater than 20% | greater than 15% |
| O=C(Nc1ccc2c(c1)OCCO2)c1ccc(C(=O)Nc2ccc3c(c2)OCCO3)cc1 [Compound I-6, N^1,N^4-bis(2,3-dihydrobenzo[b][1,4]dioxin-6-yl)terephthalamide] | greater than 30% | over 50% | – |
| CCNC(=O)c1cc(NC(=O)c2ccc(C(=O)Nc3ccccc3)cc2)nc2ccccc12 [Compound I-13, N^1-(4-(ethylcarbamoyl)quinolin-2-yl)-N^4-phenylterephthalamide] | – | – | greater than 30% |
| O=C(Nc1ccccc1Cl)c1ccccc1C(=O)Nc1ccccc1Cl [Compound I-14, N^1,N^2-bis(2-chloropheny)phthalamide] | greater than 50% | over 50% | – |
| COCc1cc(F)ccc1NC(=O)c1cccc(C(=O)Nc2ccc(F)cc2COC)c1 [Compound I-63, N^1,N^3-bis(4-fluoro-2-(methoxymethyl)phenyl)isophthalamide] | greater than 50% | greater than 30% | greater than 30% |
| O=C(c1ccc(C(=O)N2CCc3ccccc32)cc1)N1CCc2ccccc21 [Compound I-66, 1,4-phenylenebis(indolin-1-ylmethanone)] | – | greater than 30% | greater than 15% |
| N#Cc1cccc(NC(=O)c2ccc(C(=O)Nc3cccc(C#N)c3)cc2)c1 [Compound I-67, N^1,N^4-bis(3-cyanophenyl)terephthalamide] | greater than 50% | over 50% | greater than 50% |
